No constants are given. Whether binding was seen depends on the method and setting. In cells and extracts the contact can be indirect. Some binding calls cover weakened binding; strength is not graded here.
T1: c-Jun (human (endogenous in KYSE150)), P05412
T1 chain: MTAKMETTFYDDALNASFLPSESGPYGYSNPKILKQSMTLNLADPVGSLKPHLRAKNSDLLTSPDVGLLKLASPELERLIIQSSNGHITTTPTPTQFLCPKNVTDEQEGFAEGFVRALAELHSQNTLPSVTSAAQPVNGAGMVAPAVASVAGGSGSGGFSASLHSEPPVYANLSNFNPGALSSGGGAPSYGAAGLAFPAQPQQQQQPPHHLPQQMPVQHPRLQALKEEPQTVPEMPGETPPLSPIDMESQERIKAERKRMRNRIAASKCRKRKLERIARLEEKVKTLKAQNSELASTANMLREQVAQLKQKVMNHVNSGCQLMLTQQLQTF

B1: inhibitor of nuclear factor kappa B-alpha (IκB-α), P25963 1-317 (protein)
chain: MFQAAERPQEWAMEGPRDGLKKERLLDDRHDSGLDSMKDEEYEQMVKELQEIRLEPQEVPRGSEPWKQQLTEDGDSFLHLAIIHEEKALTMEVIRQVKGDLAFLNFQNNLQQTPLHLAVITNQPEIAEALLGAGCDPELRDFRGNTPLHLACEQGCLASVGVLTQSCTTPHLHSILKATNYNGHTCLHLASIHGYLGIVELLVSLGADVNAQEPCNGRTALHLAVDLQNPDLVSLLLKCGADVNRVTYQGYSPYQLTWGRPSTRIQQQLGQLTLENLQMLPESEDEESYDTESEFTEFTEDELPYDDCVFGGQRLTL
B2: phospho-inhibitor of nuclear factor kappa B-alpha (phospho-IκB-α (Ser32)), P25963 1-317 (protein)
chain: B1 chain
modifications: here or on the partner: phosphoserine at 32

How the values were obtained:
[1] = molecular target: nuclear factor kappa B p65 subunit (NFκB/p65) (human (endogenous in KYSE150)), Q04206; test: co-IP; nuclear extracts (500 µg/mL) of KYSE150 cells, untreated or treated with MLN4924 (1 µM, 24 h) or TNF-α (30 ng/mL, 1 h); anti-NFκB/p65 antibody overnight at 4 °C, Protein G magnetic beads, washed with 10 mM HEPES pH 7.6; Western blot; settings: remark: other sources report otherwise
[2] = molecular target: T1, c-Jun (human (endogenous in KYSE150)), …; test: co-IP; nuclear protein-enriched extracts of KYSE150 cells, untreated or treated with MLN4924 (1 µM, 24 h) or TNF-α (30 ng/mL, 1 h); rabbit anti-c-Jun antibody; Western blot; settings: remark: other sources report otherwise

| Binder | binding [1] | binding [2] |
| --- | --- | --- |
| B1 | binds | binds |
| B2 | binds | – |
